Assay results as given in the supplement of paper PMC8728848.
The list shows a part of the results.

Experiments:
Assay in all cases: glycan array binding signal (z-score within array); higher = stronger binding
Conditions in all cases: glycan notation: IUPAC condensed, linker removed
[1] = molecular target: GalNAc(b1-3)GalNAc
How it was run: (§1)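 Glycan array data were curated from 3228 arrays in the Consortium for Functional Glycomics database and kept only where the protein sequence was available. Glycan names were converted to IUPAC-condensed notation, and columns mapping to the same glycan were averaged. The binding signal is a within-array Z-score, averaged across arrays of the same protein sequence at different concentrations or buffers and across linkers. Negative Z-scores can be read as non-binding.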

[2] = molecular target: GalNAc(b1-4)GlcNAc
How it was run: as §1

[3] = molecular target: Glc(a1-4)Glc
How it was run: as §1

[4] = molecular target: Glc(a1-6)Glc(a1-6)Glc
How it was run: as §1

[5] = molecular target: Glc(b1-4)Glc
How it was run: as §1

[6] = molecular target: Glc(b1-6)Glc
How it was run: as §1

[7] = molecular target: GlcA(b1-3)Gal
How it was run: as §1

[8] = molecular target: GlcA(b1-3)GlcNAc
How it was run: as §1

[9] = molecular target: GlcA(b1-6)Gal
How it was run: as §1

[10] = molecular target: GlcNAc(a1-3)Gal(b1-4)GlcNAc
How it was run: as §1

[11] = molecular target: GlcNAc(a1-6)Gal(b1-4)GlcNAc
How it was run: as §1

[12] = molecular target: GlcNAc(b1-2)Gal(b1-3)GalNAc
How it was run: as §1

[13] = molecular target: GlcNAc(b1-2)Man(a1-3)[GlcNAc(b1-2)Man(a1-6)]Man(b1-4)GlcNAc(b1-4)GlcNAc
How it was run: as §1

[14] = molecular target: GlcNAc(b1-3)Gal
How it was run: as §1

[15] = molecular target: GlcNAc(b1-3)Gal(b1-3)GalNAc
How it was run: as §1

[16] = molecular target: GlcNAc(b1-3)Gal(b1-4)Glc
How it was run: as §1

[17] = molecular target: GlcNAc(b1-3)Gal(b1-4)GlcNAc
How it was run: as §1

[18] = molecular target: GlcNAc(b1-3)Gal(b1-4)GlcNAc(b1-3)Gal(b1-4)GlcNAc
How it was run: as §1

[19] = molecular target: GlcNAc(b1-3)GalNAc
How it was run: as §1

[20] = molecular target: GlcNAc(b1-3)Man
How it was run: as §1

[21] = molecular target: GlcNAc(b1-3)[GlcNAc(b1-4)][GlcNAc(b1-6)]GlcNAc
How it was run: as §1

[22] = molecular target: GlcNAc(b1-3)[GlcNAc(b1-6)]Gal(b1-4)GlcNAc
How it was run: as §1

[23] = molecular target: GlcNAc(b1-3)[GlcNAc(b1-6)]GalNAc
How it was run: as §1

[24] = molecular target: GlcNAc(b1-4)Gal(b1-4)GlcNAc
How it was run: as §1

[25] = molecular target: GlcNAc(b1-4)GlcNAc
How it was run: as §1

[26] = molecular target: GlcNAc(b1-4)GlcNAc(b1-4)GlcNAc
How it was run: as §1

[27] = molecular target: GlcNAc(b1-4)GlcNAc(b1-4)GlcNAc(b1-4)GlcNAc(b1-4)GlcNAc
How it was run: as §1

[28] = molecular target: GlcNAc(b1-4)GlcNAc(b1-4)GlcNAc(b1-4)GlcNAc(b1-4)GlcNAc(b1-4)GlcNAc
How it was run: as §1

[29] = molecular target: GlcNAc(b1-4)[GlcNAc(b1-6)]GalNAc
How it was run: as §1

[30] = molecular target: GlcNAc(b1-6)Gal(b1-4)GlcNAc
How it was run: as §1

[31] = molecular target: GlcNAc(b1-6)GalNAc
How it was run: as §1

[32] = molecular target: GlcNAc3Prop(b1-4)GlcNAc
How it was run: as §1

[33] = molecular target: Kdn(a2-3)Gal(b1-3)GlcNAc
How it was run: as §1

[34] = molecular target: Kdn(a2-3)Gal(b1-4)GlcNAc
How it was run: as §1

[35] = molecular target: Man(a1-2)Man(a1-2)Man(a1-3)Man
How it was run: as §1

[36] = molecular target: Man(a1-2)Man(a1-2)Man(a1-6)[Man(a1-3)]Man
How it was run: as §1

[37] = molecular target: Man(a1-2)Man(a1-3)Man
How it was run: as §1

[38] = molecular target: Man(a1-2)Man(a1-3)[Man(a1-2)Man(a1-6)]Man
How it was run: as §1

[39] = molecular target: Man(a1-2)Man(a1-3)[Man(a1-2)Man(a1-6)]Man(a1-6)[Man(a1-2)Man(a1-2)Man(a1-3)]Man
How it was run: as §1

[40] = molecular target: Man(a1-2)Man(a1-3)[Man(a1-2)Man(a1-6)]Man(a1-6)[Man(a1-2)Man(a1-2)Man(a1-3)]Man(b1-4)GlcNAc(b1-4)GlcNAc
How it was run: as §1

[41] = molecular target: Man(a1-2)Man(a1-3)[Man(a1-6)]Man(a1-6)[Man(a1-2)Man(a1-3)]Man(b1-4)GlcNAc(b1-4)GlcNAc
How it was run: as §1

[42] = molecular target: Man(a1-2)Man(a1-6)[Man(a1-3)]Man(a1-6)[Man(a1-2)Man(a1-2)Man(a1-3)]Man
How it was run: as §1

[43] = molecular target: Man(a1-2)Man(a1-6)[Man(a1-3)]Man(a1-6)[Man(a1-2)Man(a1-2)Man(a1-3)]Man(b1-4)GlcNAc(b1-4)GlcNAc
How it was run: as §1

[44] = molecular target: Man(a1-3)[Man(a1-6)]Man
How it was run: as §1

[45] = molecular target: Man(a1-3)[Man(a1-6)]Man(a1-6)[Man(a1-2)Man(a1-3)]Man(b1-4)GlcNAc(b1-4)GlcNAc
How it was run: as §1

B1: SLLPI (Mus musculus), Q9D9X8 (protein)
chain: MGICMSMYTQVLVPVDADGDHHILWSRFYERWGSCFNPCAGLVNCLPPHSSALYLCHRMEARSRAPRRQLCPPGITWLALAYLLSCLLASSKAKVFSRCELAKEMHDFGLDGYRGYNLADWVCLAYYTSGFNTNAVDHEADGSTNNGIFQISSRRWCRTLASNGPNLCRIYCTDLLNNDLKDSIVCAMKIVQEPLGLGYWEAWRHHCQGRDLSDWVDGCDF
Q: Which results are given for B1?
A: glycan array binding signal (z-score) [1]: 1.03; glycan array binding signal (z-score) [2]: -0.301; glycan array binding signal (z-score) [3]: -0.387; glycan array binding signal (z-score) [4]: -0.821; glycan array binding signal (z-score) [5]: -0.912; glycan array binding signal (z-score) [6]: -0.283; glycan array binding signal (z-score) [7]: 0.451; glycan array binding signal (z-score) [8]: -0.219; glycan array binding signal (z-score) [9]: -1.06; glycan array binding signal (z-score) [10]: 0.414; glycan array binding signal (z-score) [11]: 0.171; glycan array binding signal (z-score) [12]: -1.26; glycan array binding signal (z-score) [13]: -0.631; glycan array binding signal (z-score) [14]: -0.47; glycan array binding signal (z-score) [15]: 3.21; glycan array binding signal (z-score) [16]: -0.699; glycan array binding signal (z-score) [17]: -0.961; glycan array binding signal (z-score) [18]: -0.843; glycan array binding signal (z-score) [19]: -0.086; glycan array binding signal (z-score) [20]: -0.446; glycan array binding signal (z-score) [21]: -0.344; glycan array binding signal (z-score) [22]: -0.606; glycan array binding signal (z-score) [23]: 0.017; glycan array binding signal (z-score) [24]: -0.584; glycan array binding signal (z-score) [25]: -1.01; glycan array binding signal (z-score) [26]: 1.92; glycan array binding signal (z-score) [27]: -0.401; glycan array binding signal (z-score) [28]: -0.311; glycan array binding signal (z-score) [29]: -0.02; glycan array binding signal (z-score) [30]: 0.332; glycan array binding signal (z-score) [31]: 0.716; glycan array binding signal (z-score) [32]: -0.647; glycan array binding signal (z-score) [33]: -0.827; glycan array binding signal (z-score) [34]: -0.806; glycan array binding signal (z-score) [35]: -0.502; glycan array binding signal (z-score) [36]: -0.717; glycan array binding signal (z-score) [37]: 0.391; glycan array binding signal (z-score) [38]: -1.08; glycan array binding signal (z-score) [39]: -0.761; glycan array binding signal (z-score) [40]: -0.652; glycan array binding signal (z-score) [41]: 0.317; glycan array binding signal (z-score) [42]: 0.216; glycan array binding signal (z-score) [43]: -0.136; glycan array binding signal (z-score) [44]: 0.386; glycan array binding signal (z-score) [45]: -1.09
